We go through one molecule from patent US20260248894A1, “COMBINATION THERAPY FOR PRETERM INFANTS” (Oak Hill Bio Ltd, priority 2022, published 2026).

Sequences of proteins named here, by UniProt entry; tags and fusion partners are left off. Residues count along the entry.
UniProt P05019, 49-118 limits assumed, stated change not applied: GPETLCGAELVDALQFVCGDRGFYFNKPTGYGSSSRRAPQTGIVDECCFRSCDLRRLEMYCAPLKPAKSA
UniProt P17936, 28-291, stated change not applied: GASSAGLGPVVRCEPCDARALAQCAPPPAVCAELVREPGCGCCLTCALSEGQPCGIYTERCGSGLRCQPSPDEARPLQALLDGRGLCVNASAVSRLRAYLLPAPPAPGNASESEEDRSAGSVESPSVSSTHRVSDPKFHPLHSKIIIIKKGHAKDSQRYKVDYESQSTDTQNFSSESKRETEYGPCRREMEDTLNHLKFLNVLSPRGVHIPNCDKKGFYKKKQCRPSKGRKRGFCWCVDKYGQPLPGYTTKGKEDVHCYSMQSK

For the data set, the target named is T1, rhIGF-1/rhIGFBP-3 drug product (Homo sapiens, UniProt P05019+P17936, DEL119-195).
T1 construct: purchased Takeda, Lexington, MA, USA
In words: In vitro physical compatibility of test medications mixed with rhIGF-1/rhIGFBP-3 (visual observation, OD320, pH, osmolality). It counts as physicochemical. Also noted: key to Physical compatibility: Yes: Test medications were considered physically compatible with rhIGF-1/rhIGFBP-3 if there was no observed change in color, precipitation, turbidity, or gas evolution, or if there was no clinically relevant change in osmolality or pH.

With `CN1CC[C@]23c4c5ccc(O)c4O[C@H]2[C@@H](O)C=C[C@H]3[C@H]1C5.O=S(=O)(O)O` [Morphine sulfate], the Physical compatibility entry was “Yes” and the “physical compatibility with rhIGF-1/rhIGFBP-3” value is “physical compatibility was established”.
